# Results reported in the supplement of paper PMC4635364.
# Structures can show the parent of a compound that is named as a salt. Some of the results follow. This data set is noisy: repeats of one test often differ as much as different tests do.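 ReNCell VM, a human fetal ventral-midbrain neural progenitor line, was differentiated without mitogens. Blinded raters scored images stained for doublecortin (early neurons) or tyrosine hydroxylase (dopaminergic neurons) against untreated wells (0 = no change). Scores were averaged across repeats and both raters, and compounds averaging 2 or more were selected as hits for retesting.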
# Columns and labels:
# ReNCell VM [1] = test: neuronal differentiation score (DCX+ cell fraction vs untreated, manual image score) (score (-3 to 3)); higher = more neuronal differentiation; details: 2 uM, 2 weeks
# ReNCell VM [2] = test: dopaminergic neuron differentiation score (TH+ cell fraction vs untreated, manual image score) (score (0 to 3)); higher = more TH+ dopaminergic neuron differentiation; details: 2 uM, 4 weeks, BDNF 10 ng/ml + GDNF 10 ng/ml
structure (smiles),measurement,setting,value
CNc1ccc(C(=O)CC(O)CCC(C)C2OC(=O)CC(O)CC(=O)CC(O)CC(O)CC(O)CC(O)CC3(O)CC(O)C(C(=O)OC)C(CC(O[C@@H]4O[C@H](C)[C@@H](O)[C@H](N)[C@@H]4O)/C=C/C=C/C=C/C=C/C=C/C=C/C=C/C2C)O3)cc1.COC(=O)C1C(O)CC2(O)CC(O)CC(O)CC(O)CC(O)CC(=O)CC(O)CC(=O)OC(C(C)CCC(O)CC(=O)c3ccc(N)cc3)C(C)/C=C/C=C/C=C/C=C/C=C/C=C/C=C/C(O[C@@H]3O[C@H](C)[C@@H](O)[C@H](N)[C@@H]3O)CC1O2 (stereo partly drawn),neuronal differentiation score,ReNCell VM [1]; library: Spectrum,inactive: 0
same,dopaminergic neuron differentiation score,ReNCell VM [2]; library: Spectrum,inactive: 0
COC(=O)[C@@H](N)CCCNC(=N)N[N+](=O)[O-] [L-NAME hydrochloride],neuronal differentiation score,ReNCell VM [1]; library: Tocriscreen,inactive: 0
same,dopaminergic neuron differentiation score,ReNCell VM [2]; library: Tocriscreen,inactive: 0
CN1C[C@H](C(=O)N[C@]2(C)O[C@@]3(O)[C@@H]4CCCN4C(=O)[C@H](Cc4ccccc4)N3C2=O)C=C2c3cccc4[nH]cc(c34)C[C@H]21 [Ergotamine tartrate],neuronal differentiation score,ReNCell VM [1]; library: Phytochemical,inactive: 0
same,dopaminergic neuron differentiation score,ReNCell VM [2]; library: Phytochemical,inactive: 0
O=c1[nH]oc2c1CCNC2 [THIP Hydrochloride],neuronal differentiation score,ReNCell VM [1]; library: Prestwick,inactive: 0
same,dopaminergic neuron differentiation score,ReNCell VM [2]; library: Prestwick,inactive: 0
CCOc1cncc(/C=C/CCNC)c1 [TC 2559 difumarate],neuronal differentiation score,ReNCell VM [1]; library: Tocriscreen,inactive: 0
same,dopaminergic neuron differentiation score,ReNCell VM [2]; library: Tocriscreen,inactive: 0
O=P1(N(CCCl)CCCl)NCCCO1 (stereo not drawn) [Cyclophosphamide],neuronal differentiation score,ReNCell VM [1]; library: Prestwick,inactive: 0
same,dopaminergic neuron differentiation score,ReNCell VM [2]; library: Prestwick,inactive: 0
C[N+]1(C)[C@@H]2CC[C@H]1C[C@@H](OC(=O)C(CO)c1ccccc1)C2 (stereo partly drawn),neuronal differentiation score,ReNCell VM [1]; library: Spectrum,inactive: 0
same,dopaminergic neuron differentiation score,ReNCell VM [2]; library: Spectrum,inactive: 0
"CCCC[N+]1(C)[C@@H]2C[C@@H](OC(=O)[C@H](CO)c3ccccc3)C[C@H]1[C@@H]1O[C@@H]12 (single isomer, unassigned; (-)) [(-)-Scopolamine,n-Butyl-, bromide]",neuronal differentiation score,ReNCell VM [1]; library: LOPAC,inactive: 0
same,dopaminergic neuron differentiation score,ReNCell VM [2]; library: LOPAC,inactive: 0
COC(=O)c1cc2c(cn1)[nH]c1ccccc12 [Methyl beta-carboline-3-carboxylate],neuronal differentiation score,ReNCell VM [1]; library: LOPAC,inactive: 0
same,dopaminergic neuron differentiation score,ReNCell VM [2]; library: LOPAC,inactive: 0
COC(=O)/C=C/C(=O)N[C@@H]1CC[C@@]2(O)[C@H]3Cc4ccc(O)c5c4[C@@]2(CCN3CC2CC2)[C@H]1O5 [?-Funaltrexamine hydrochloride],neuronal differentiation score,ReNCell VM [1]; library: Tocriscreen,inactive: -1
same,dopaminergic neuron differentiation score,ReNCell VM [2]; library: Tocriscreen,inactive: 0
CCC(=O)O[C@H]1CC[C@H]2[C@@H]3CCC4=CC(=O)CC[C@]4(C)[C@H]3CC[C@]12C [Testosterone propionate],neuronal differentiation score,ReNCell VM [1]; library: Prestwick,inactive: 0
same,dopaminergic neuron differentiation score,ReNCell VM [2]; library: Prestwick,inactive: 0
"COc1ccc2c3c1O[C@H]1C(=O)CC[C@@]4(O)C(C2)N(CC2CC2)CCC314 (single isomer, unassigned; (-)) [(-)-3-Methoxynaltrexone hydrochloride]",neuronal differentiation score,ReNCell VM [1]; library: LOPAC,inactive: 0
same,dopaminergic neuron differentiation score,ReNCell VM [2]; library: LOPAC,inactive: 0
Cc1onc(O)c1CC(N)C(=O)O (racemic) [(RS)-AMPA hydrobromide],neuronal differentiation score,ReNCell VM [1]; library: Tocriscreen,inactive: 0
same,dopaminergic neuron differentiation score,ReNCell VM [2]; library: Tocriscreen,inactive: 0
Cc1ncc(CN2CC=C(c3ccccc3)CC2)c(N)n1,neuronal differentiation score,ReNCell VM [1]; library: Tocriscreen,inactive: 0
same,dopaminergic neuron differentiation score,ReNCell VM [2]; library: Tocriscreen,inactive: 0
CC(=O)O[C@@H]1CC[C@@]2(C)[C@@H](CC[C@@H]3[C@@H]2CC[C@]2(C)C(=O)CC[C@@H]32)C1,neuronal differentiation score,ReNCell VM [1]; library: Spectrum,inactive: 0
same,dopaminergic neuron differentiation score,ReNCell VM [2]; library: Spectrum,inactive: 0
Oc1ccc(Cl)cc1Cc1cc(Cl)ccc1O,neuronal differentiation score,ReNCell VM [1]; library: Spectrum,inactive: 0
same,dopaminergic neuron differentiation score,ReNCell VM [2]; library: Spectrum,inactive: 1
CC(=O)O[C@@H]1C[C@H]2C(C)(C)C(=O)C=C[C@]2(C)[C@H]2CC[C@]3(C)C(=CC(=O)O[C@H]3c3ccoc3)[C@@]21C,neuronal differentiation score,ReNCell VM [1]; library: Spectrum,inactive: 0
same,dopaminergic neuron differentiation score,ReNCell VM [2]; library: Spectrum,inactive: 0
CC1=CC(=O)c2c(O)cccc2C1=O,neuronal differentiation score,ReNCell VM [1]; library: Spectrum,inactive: 0
same,dopaminergic neuron differentiation score,ReNCell VM [2]; library: Spectrum,inactive: 0
Nc1nc(N)nc(NC2CC2)n1,neuronal differentiation score,ReNCell VM [1]; library: Spectrum,inactive: 0
same,dopaminergic neuron differentiation score,ReNCell VM [2]; library: Spectrum,inactive: 0
CCCCCCCCCCCCCC(=O)O[C@@H]1[C@@H](C)[C@@]2(O)[C@@H](C=C(CO)C[C@]3(O)C(=O)C(C)=C[C@@H]23)[C@@H]2C(C)(C)[C@]12OC(C)=O [Phorbol 12-myristate 13-acetate],neuronal differentiation score,ReNCell VM [1]; library: LOPAC,inactive: 0
same,dopaminergic neuron differentiation score,ReNCell VM [2]; library: LOPAC,inactive: 0
CC(C)(C)NCC(O)c1cc(Cl)c(N)c(Cl)c1 (stereo not drawn) [Clenbuterol hydrochloride],neuronal differentiation score,ReNCell VM [1]; library: Prestwick,inactive: 0
same,dopaminergic neuron differentiation score,ReNCell VM [2]; library: Prestwick,inactive: 0
CCCN1CCc2cccc3c2[C@H]1Cc1ccc(O)c(O)c1-3 [R(-)-Propylnorapomorphine hydrochloride],neuronal differentiation score,ReNCell VM [1]; library: LOPAC,inactive: 1
same,dopaminergic neuron differentiation score,ReNCell VM [2]; library: LOPAC,inactive: 0
N#Cc1c(Cl)c(Cl)c(Cl)c(C#N)c1Cl,neuronal differentiation score,ReNCell VM [1]; library: Spectrum,inactive: 0
same,dopaminergic neuron differentiation score,ReNCell VM [2]; library: Spectrum,inactive: 0
Cc1onc(O)c1CC(N)C(=O)O (racemic),neuronal differentiation score,ReNCell VM [1]; library: Tocriscreen,inactive: 0
same,dopaminergic neuron differentiation score,ReNCell VM [2]; library: Tocriscreen,inactive: 0
CCCN(CCC)C1CCc2cccc(O)c2C1 (stereo not drawn) [8-Hydroxy-DPAT hydrobromide],neuronal differentiation score,ReNCell VM [1]; library: Tocriscreen,inactive: 0
same,dopaminergic neuron differentiation score,ReNCell VM [2]; library: Tocriscreen,inactive: 0
O=C(O)CC[N+](=O)[O-] [3-Nitropropionic acid],neuronal differentiation score,ReNCell VM [1]; library: LOPAC,inactive: 0
same,dopaminergic neuron differentiation score,ReNCell VM [2]; library: LOPAC,inactive: 0
CN1Cc2ccccc2[C@@H]2c3cccc4[nH]cc(c34)C[C@H]21,neuronal differentiation score,ReNCell VM [1]; library: Tocriscreen,inactive: 0
same,dopaminergic neuron differentiation score,ReNCell VM [2]; library: Tocriscreen,inactive: 0
CC(C)CC(N(C)C)C1(c2ccc(Cl)cc2)CCC1 (stereo not drawn) [Sibutramine HCl],neuronal differentiation score,ReNCell VM [1]; library: Prestwick,inactive: 0
same,dopaminergic neuron differentiation score,ReNCell VM [2]; library: Prestwick,inactive: 0
O=[N+]([O-])c1cc([As](=O)(O)O)ccc1O,neuronal differentiation score,ReNCell VM [1]; library: Spectrum,inactive: 0
same,dopaminergic neuron differentiation score,ReNCell VM [2]; library: Spectrum,inactive: 0

# Nothing new here: an excerpt of the list.
structure (smiles),measurement,setting,value
O=c1[nH]oc2c1CCNC2 [THIP Hydrochloride],dopaminergic neuron differentiation score,ReNCell VM [2]; library: Prestwick,inactive: 0
CCOc1cncc(/C=C/CCNC)c1 [TC 2559 difumarate],neuronal differentiation score,ReNCell VM [1]; library: Tocriscreen,inactive: 0
same,dopaminergic neuron differentiation score,ReNCell VM [2]; library: Tocriscreen,inactive: 0
O=P1(N(CCCl)CCCl)NCCCO1 (stereo not drawn) [Cyclophosphamide],neuronal differentiation score,ReNCell VM [1]; library: Prestwick,inactive: 0
